{"source": "paper PMC7024557", "about": "“Synthesis of Novel Structural Hybrids between Aza-Heterocycles and Azelaic Acid Moiety with a Specific Activity on Osteosarcoma Cells” (Molecules, 2020)", "origin": "cited, not measured here", "tested_on": "human osteosarcoma growth", "design": "method as in PMID 24344034, PMID 30697272", "conditions": "ref [32],[33]; read-out: IC50, inhibition of human osteosarcoma growth; cited from earlier work"}
{"smiles": "O=C(CCCCCCC(=O)Nc1ccccc1)NO", "note": "[SAHA, SuberAniloHydroxamic Acid]", "values": [{"measurement": "IC50", "result": 5, "unit": "µM"}]}
